From patent EP2457593A1 (Lykera Biomed S.A., priority 2010, dated 2012)

Assay: general procedure: Fmoc solid-phase peptide synthesis; 2-chlorotrityl chloride resin; HCTU/HOBt/DIEA; HATU/HOAt/DIEA for thiazole; triphosgene/collidine for Asp; PyAO
Conditions: whole synthesis, hydrochloride salt (compound 3); run 1

Row | Substance | isolated yield
1 | Cyclo[-Arg-Gly-Asp- 6 or 7 -Phe-Val-Ala-] [2] | 12%
2 | Cyclo[-Arg-Gly-Asp- 6 or 7 -Phe-Val-Ala-] [1] | 7.7%
